Test results as given in publication PMC5654082 (Malaria Journal, 2017).
Counter-ions that a name gives are not always drawn. Like-named read-outs stand apart in the source and are kept apart here.

Test system: OCT2
Settings: fraction unbound * Cmax/IC50, cut-off value 0.1

SMILES | DDI index (OCT2) | DDI index (OCT2) (listed as AQ) | DDI index (OCT2) (listed as PG)
CCN(CC)Cc1cc(Nc2ccnc3cc(Cl)ccc23)ccc1O [Amodiaquine, amodiaquine dihydrochloride dehydrate] | 0.0001 | below 0.1 | –
[H]/N=C(\N/C(=N/[H])Nc1ccc(Cl)cc1)NC(C)C [Proguanil, proguanil hydrochloride] | 0.02 | – | below 0.1
CCc1nc(N)nc(N)c1-c1ccc(Cl)cc1 [Pyrimethamine, pyrimethamine] | 0.04 | – | –
